The source of these data is paper PMC7426016.

Sequences of proteins named here, by UniProt entry; tags and fusion partners are left off.
UniProt Q61056: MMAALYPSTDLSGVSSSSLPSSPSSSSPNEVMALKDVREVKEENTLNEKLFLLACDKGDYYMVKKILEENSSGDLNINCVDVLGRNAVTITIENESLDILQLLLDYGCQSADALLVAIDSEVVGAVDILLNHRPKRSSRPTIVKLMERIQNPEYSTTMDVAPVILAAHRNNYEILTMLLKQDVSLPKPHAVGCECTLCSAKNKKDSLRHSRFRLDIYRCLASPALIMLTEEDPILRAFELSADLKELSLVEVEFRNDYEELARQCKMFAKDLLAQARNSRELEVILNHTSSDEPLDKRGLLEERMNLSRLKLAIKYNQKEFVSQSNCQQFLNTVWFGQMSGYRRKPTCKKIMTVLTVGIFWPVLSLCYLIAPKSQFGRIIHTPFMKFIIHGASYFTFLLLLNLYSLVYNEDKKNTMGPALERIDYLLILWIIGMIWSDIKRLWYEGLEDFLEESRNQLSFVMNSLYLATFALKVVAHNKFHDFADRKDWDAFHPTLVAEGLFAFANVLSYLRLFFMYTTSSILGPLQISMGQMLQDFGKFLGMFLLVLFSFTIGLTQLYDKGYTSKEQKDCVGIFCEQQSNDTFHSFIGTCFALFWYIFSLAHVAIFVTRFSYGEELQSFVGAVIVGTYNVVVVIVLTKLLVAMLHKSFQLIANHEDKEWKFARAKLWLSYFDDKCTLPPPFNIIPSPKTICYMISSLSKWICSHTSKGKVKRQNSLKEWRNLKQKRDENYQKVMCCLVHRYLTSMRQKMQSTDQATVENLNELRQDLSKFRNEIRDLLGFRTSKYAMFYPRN
UniProt Q9EPK8: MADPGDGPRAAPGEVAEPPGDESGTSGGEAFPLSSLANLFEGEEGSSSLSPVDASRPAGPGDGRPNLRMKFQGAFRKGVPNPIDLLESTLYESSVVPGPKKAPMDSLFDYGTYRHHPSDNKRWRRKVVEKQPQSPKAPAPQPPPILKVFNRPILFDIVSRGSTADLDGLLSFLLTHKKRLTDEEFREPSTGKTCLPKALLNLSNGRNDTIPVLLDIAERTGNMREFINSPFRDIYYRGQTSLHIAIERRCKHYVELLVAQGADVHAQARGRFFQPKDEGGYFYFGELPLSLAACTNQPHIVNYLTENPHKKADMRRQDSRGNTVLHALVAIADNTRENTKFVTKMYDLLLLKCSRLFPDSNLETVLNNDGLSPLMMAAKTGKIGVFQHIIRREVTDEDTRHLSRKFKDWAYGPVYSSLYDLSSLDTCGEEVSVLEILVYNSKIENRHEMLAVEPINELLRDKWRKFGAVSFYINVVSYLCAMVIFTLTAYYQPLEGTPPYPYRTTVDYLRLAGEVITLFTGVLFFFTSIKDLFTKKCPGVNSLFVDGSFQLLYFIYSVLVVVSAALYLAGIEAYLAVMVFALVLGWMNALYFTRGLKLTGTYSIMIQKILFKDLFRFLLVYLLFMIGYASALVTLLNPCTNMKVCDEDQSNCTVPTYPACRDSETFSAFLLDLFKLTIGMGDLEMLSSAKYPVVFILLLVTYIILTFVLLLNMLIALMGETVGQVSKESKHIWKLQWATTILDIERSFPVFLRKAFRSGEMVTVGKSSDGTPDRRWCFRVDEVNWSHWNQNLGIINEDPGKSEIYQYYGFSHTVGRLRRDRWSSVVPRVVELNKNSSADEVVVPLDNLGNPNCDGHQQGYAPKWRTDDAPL

No constants are given. Whether binding was seen depends on the method and setting. Binding seen in cells or lysates may run through a third protein. Some binding calls cover weakened binding; strength is not graded here.

In this experiment the target is TRPC1 (mouse (endogenous in mesenteric artery endothelial cells)) (UniProt Q61056). Put plainly: proximity ligation; Duolink in situ PLA on freshly isolated mouse mesenteric artery ECs, fixed with 4% paraformaldehyde and permeabilised with 0.1% Triton X-100; goat anti-TRPV4 antibody and rabbit T1E3 (both 1:200) overnight at 4°C; signal when in close proximity (<40 nm); TRPC1-/- ECs and omission of primary antibodies as controls.

Regarding TRPV4 (from UniProt Q9EPK8 1-871), the binding entry was “binds”.
